These are yes or no findings as the source states them, for the method shown. Binding seen in cells or lysates may run through a third protein. Some entries that bind do so weakly or less than the wild type.
B1: Nog (protein, UniProt P97466 28-232)
chain: QHYLHIRPAPSDNLPLVDLIEHPDPIFDPKEKDLNETLLRSLLGGHYDPGFMATSPPEDRPGGGGGPAGGAEDLAELDQLLRQRPSGAMPSEIKGLEFSEGLAQGKKQRLSKKLRRKLQMWLWSQTFCPVLYAWNDLGSRFWPRYVKVGSCFSKRSCSVPEGMVCKPSKSVHLTVLRWRCQRRGGQRCGWIPIQYPIISECKCSC
B2: pleiotrophin (protein, UniProt P21246 33-168)
chain: GKKEKPEKKVKKSDCGEWQWSVCVPTSGDCGLGTREGTRTGAECKQTMKTQRCKIPCNWKKQFGAECKYQFQAWGECDLNTALKTRTGSLKRALHNAECQKTVTISKPCGKLTKPKPQAESKKKKKEGKKQEKMLD
B3: Smoc2 (protein, UniProt Q8CD91 22-447)
chain: QKFSALTFLRVDQDKDRDCSLDCPSSPQKPLCASDGRTFLSRCEFQRAKCKDPQLEIAHRGNCKDVSRCVAERKYTQEQARKEFQQVFIPECNDDGTYSQVQCHSYTGYCWCVTPNGRPISGTAVAHKTPRCPGSINEKVPQREGAGKADDAAAPALETQPQGDEEDIASRYPTLWTEQVKSRQNKTNKNSASSCDQEHQSALEEAKQPKNDNVVIPECAHGGLYKPVQCHPSTGYCWCVLVDTGRPIPGTSTRYEQPKCDNTARAHPAKARDLYKNRPLQGCPGAKKHEFLTSVLDALSTDMVHAVSDPSSSSGRLSEPDPSHTLEERVVHWYFKLLDKNSSGDIGKKEIKPFKRFLRKKSKPKKCVKKFVEYCDMNNDKSITVQELMGCLGVTREEGKANTRKRHTPRGNAESSSSNRQPRKQG
B4: Vtn (protein, UniProt P29788 20-478)
chain: DQESCKGRCTQGFMASKKCQCDELCTYYQSCCADYMEQCKPQVTRGDVFTMPEDDYWSYDYVEEPKNNTNTGVQPENTSPPGDLNPRTDGTLKPTAFLDPEEQPSTPAPKVEQQEEILRPDTTDQGTPEFPEEELCSGKPFDAFTDLKNGSLFAFRGQYCYELDETAVRPGYPKLIQDVWGIEGPIDAAFTRINCQGKTYLFKGSQYWRFEDGVLDPGYPRNISEGFSGIPDNVDAAFALPAHRYSGRERVYFFKGKQYWEYEFQQQPSQEECEGSSLSAVFEHFALLQRDSWENIFELLFWGRSSDGAREPQFISRNWHGVPGKVDAAMAGRIYVTGSLSHSAQAKKQKSKRRSRKRYRSRRGRGHRRSQSSNSRRSSRSIWFSLFSSEESGLGTYNNYDYDMDWLVPATCEPIQSVYFFSGDKYYRVNLRTRRVDSVNPPYPRSIAQYWLGCPTSEK
B5: Olfml3 (protein, UniProt Q8BK62 22-406)
chain: QQHHLVEYMERRLAALEERLAQCQDQSSRLAAELRDFKNKMLPLLEVAEKERETLRTEADSISGRVDRLEREVDYLETQNPALPCVELDEKVTGGPGAKGKGRRNEKYDMVTDCSYTVAQVRSMKILKRFGGSAGLWTKDPLGPAEKIYVLDGTQNDTAFVFPRLRDFTLAMAARKASRIRVPFPWVGTGQLVYGGFLYYARRPPGGPGGGGELENTLQLIKFHLANRTVVDSSVFPAESLIPPYGLTADTYIDLAADEEGLWAVYATRDDDRHLCLAKLDPQTLDTEQQWDTPCPRENAEAAFVICGTLYVVYNTRPASRARIQCSFDASGTLAPERAALSYFPRRYGAHASLRYNPRERQLYAWDDGYQIVYKLEMKKKEEEV
B6: midkine (protein, UniProt P12025 23-140)
chain: KKKEKVKKGSECSEWTWGPCTPSSKDCGMGFREGTCGAQTQRVHCKVPCNWKKEFGADCKYKFESWGACDGSTGTKARQGTLKKARYNAQCQETIRVTKPCTSKTKSKTKAKKGKGKD
B7: Sfrp1 (protein, UniProt Q8C4U3 32-314)
chain: SEYDYVSFQSDIGSYQSGRFYTKPPQCVDIPVDLRLCHNVGYKKMVLPNLLEHETMAEVKQQASSWVPLLNKNCHMGTQVFLCSLFAPVCLDRPIYPCRWLCEAVRDSCEPVMQFFGFYWPEMLKCDKFPEGDVCIAMTPPNTTEASKPQGTTVCPPCDNELKSEAIIEHLCASEFALRMKIKEVKKENGDKKIVPKKKKPLKLGPIKKKELKRLVLFLKNGADCPCHQLDNLSHNFLIMGRKVKSQYLLTAIHKWDKKNKEFKNFMKRMKNHECPTFQSVFK
B8: Smoc1 (protein, UniProt Q8BLY1 26-463)
chain: HRTTGPRFLISDRDPPCNPHCPRTQPKPICASDGRSYESMCEYQRAKCRDPALAVVHRGRCKDAGQSKCRLERAQALEQAKKPQEAVFVPECGEDGSFTQVQCHTYTGYCWCVTPDGKPISGSSVQNKTPVCSGPVTDKPLSQGNSGRKVSFRFFLTLNSDDGSKPTPTMETQPVFDGDEITAPTLWIKHLVIKDSKLNNTNVRNSEKVHSCDQERQSALEEARQNPREGIVIPECAPGGLYKPVQCHQSTGYCWCVLVDTGRPLPGTSTRYVMPSCESDARAKSVEADDPFKDRELPGCPEGKKMEFITSLLDALTTDMVQAINSAAPTGGGRFSEPDPSHTLEERVAHWYFSQLDSNSSDDINKREMKPFKRYVKKKAKPKKCARRFTDYCDLNKDKVISLPELKGCLGVSKEGGSLGSFPQGKRAGTNPFIGRLV
B9: Frzb (protein, UniProt P97401 33-323)
chain: AACEPVRIPLCKSLPWNMTKMPNHLHHSTQANAILAMEQFEGLLGTHCSPDLLFFLCAMYAPICTIDFQHEPIKPCKSVCERARQGCEPILIKYRHSWPESLACDELPVYDRGVCISPEAIVTADGADFPMDSSTGHCRGASSERCKCKPVRATQKTYFRNNYNYVIRAKVKEVKMKCHDVTAVVEVKEILKASLVNIPRDTVNLYTTSGCLCPPLTVNEEYVIMGYEDEERSRLLLVEGSIAEKWKDRLGKKVKRWDMKLRHLGLGKTDASDSTQNQKSGRNSNPRPARS

Sequences of proteins named here, by UniProt entry; tags and fusion partners are left off. Residues count along the entry.
UniProt P05067, residues 672-713: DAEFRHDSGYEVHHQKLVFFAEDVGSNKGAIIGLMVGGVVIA

What follows are binders tested against amyloid beta 1-42 fibrils (human) (UniProt P05067) (assay: co-sedimentation).
For B1, the binding was “binds”.
In the case of B2, the binding is reported as “binds”.
B3 was tested, and the binding was “binds”.
B4 was tested, and the binding was “binds”.
In the case of B5, the binding is reported as “binds”.
For B6, the binding was “binds”.
For B7, the binding was “binds”.
With B8 the binding was “binds”.
In the case of B9, the binding is reported as “binds”.
